This note sets out measurements from PMC8662847.

Protein sequences, listed by entry. Tags and fused reporters are not part of them.
UniProt Q96H22: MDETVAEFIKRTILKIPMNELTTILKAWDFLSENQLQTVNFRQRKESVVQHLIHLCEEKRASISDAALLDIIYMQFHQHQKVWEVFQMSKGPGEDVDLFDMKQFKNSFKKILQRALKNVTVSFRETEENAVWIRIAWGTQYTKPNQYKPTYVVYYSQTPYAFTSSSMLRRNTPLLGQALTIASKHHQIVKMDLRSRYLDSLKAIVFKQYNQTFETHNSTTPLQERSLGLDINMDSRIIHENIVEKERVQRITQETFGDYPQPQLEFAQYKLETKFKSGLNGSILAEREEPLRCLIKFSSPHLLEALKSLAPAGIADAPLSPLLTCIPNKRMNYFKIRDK
UniProt P31749: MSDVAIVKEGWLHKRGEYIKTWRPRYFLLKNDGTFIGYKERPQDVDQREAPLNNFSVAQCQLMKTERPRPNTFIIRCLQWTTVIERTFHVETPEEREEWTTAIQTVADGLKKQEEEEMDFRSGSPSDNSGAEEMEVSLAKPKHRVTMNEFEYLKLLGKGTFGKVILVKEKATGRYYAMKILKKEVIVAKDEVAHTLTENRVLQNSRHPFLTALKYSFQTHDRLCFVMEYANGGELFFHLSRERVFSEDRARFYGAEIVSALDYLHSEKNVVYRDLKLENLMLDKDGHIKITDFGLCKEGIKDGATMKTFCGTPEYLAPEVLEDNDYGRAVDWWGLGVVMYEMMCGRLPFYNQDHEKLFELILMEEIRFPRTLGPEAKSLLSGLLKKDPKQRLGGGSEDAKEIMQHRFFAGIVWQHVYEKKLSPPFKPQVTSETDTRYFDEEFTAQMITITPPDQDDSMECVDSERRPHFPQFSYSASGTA

The target of the test is GST-CENP-N fusion protein (human) (UniProt Q96H22). Briefly: pull-down; 500 ug of GST or GST-CENP-N mixed 3 h with glutathione-agarose resin, then 500 ug of His-AKT1 protein overnight; SDS-PAGE, blots with anti-GST and anti-His.

Results are given in words; binding and its absence hold for the method and conditions named. In cells and extracts the contact can be indirect. Some entries that bind do so weakly or less than the wild type.

For “His-AKT1 fusion protein (from UniProt P31749 1-480)”, the binding result was “binds”.
